{"source": "patent US7893197B2", "about": "“Relaxin-3 chimeric polypeptides and their preparation and use” (Janssen Pharmaceutica N.V., priority 2005, dated 2011)", "system": "GPCR135-like binding sites in rat brain", "experiment": "Radioligand autoradiography on rat brain sagittal sections", "conditions": "5 pM radioligand; non-specific binding with 100 nM unlabeled relaxin-3"}
{"substance": "[^125I]-R3/I5: radioiodinated R3/I5 chimera used as tracer (RAAPYGVRLCGREFIRAVIFTCGGSRWQDLQTLCCTDGCSMTDLSALC)", "values": [{"measurement": "total versus non-specific binding on rat brain section, in words", "result": "the non-specific binding was reduced"}]}
{"substance": "[^125I]-relaxin-3: radioiodinated human relaxin-3 used as tracer (RAAPYGVRLCGREFIRAVIFTCGGSRWDVLAGLSSSCCKWGCSKSEISSLC) [reference compound]", "values": [{"measurement": "total versus non-specific binding on rat brain section, in words", "result": "no substantial difference between total binding and non-specific binding"}]}
